Results on 47 substances are retold here after patent publication US9409952B2 (Chugai Seiyaku Kabushiki Kaisha, priority 2011, dated 2016).

Positions of bridges follow the written chain, without caps; N, C: chain ends. Non-standard residues stand in square brackets, D forms with d. *: point of attachment. Ala(1H-tetrazol-5-yl) = N[C@@H](Cc1nnn[nH]1)C(=O)O; NMeF = CN[C@@H](Cc1ccccc1)C(=O)O; dPhLac = O=C(O)[C@H](O)Cc1ccccc1; NMeL = CN[C@@H](CC(C)C)C(=O)O; NMeA = CN[C@@H](C)C(=O)O; Piperidide = C1CCN(*)CC1; Boc = CC(C)(C)OC(=O)*; SBn = c1ccc(CS*)cc1; StBu = CC(C)(C)S*; tBu = CC(C)(C)*

A short description of data set [1]: general procedure: Fmoc solid-phase peptide synthesis; Fmoc-Ala-O-Trt(2-Cl) resin; DIC/HOAt. Particulars: whole synthesis.
Data set [2] is described as follows: general procedure: Fmoc solid-phase peptide synthesis; 2-Chlorotrityl resin; DIC/HOAt. The note with it: for isolated mass / isolated yield: whole synthesis; for isolated yield: scale of the general procedure 250 to 300 mg resin per column; for cyclisation yield: cyclisation step.

In data set [1] (scale 80.9 μmol), Ac-Trp-Cys(StBu)-Pro-Lac-Ala-OH gave an isolated mass of 51.4 mg and an isolated yield of 94%. As for “Boc-GA[NMeF]G[NMeL]AVFD(SBn)[NMeA]S(tBu)G-NH2”, in data set [2] (late stage modification step), the step yield is reported as 21.8%.

Consider Fmoc-Asp-MePhe-MePhe-Ala-pip, for which the step yield in data set [2] (late stage modification step) turned out to be 66%.

As for “Sulfoxide of Ac*-MeAla-MePhe-MeLeu-Thr-MeGly-MeLeu-Ser(tBu)-MeIle-Cys*-piperidine compounds (cyclized at two * sites, Compound P-109)”, the step yield in data set [2] (late stage modification step) turned out to be 90%. As to “Sulfoxide (Compound P-117) by direct oxidation of Ac*-MeAla-Phe-MeLeu-Thr-MeGly-MeLeu-Ser(tBu)-MeIle-Cys*-piperidine (Compound P-111)”, in data set [2] (late stage modification step), the step yield amounted to 83%. Take “[NMeL]L[NMeL][NMeF]L[NMeF][NMeL][Ala(1H-tetrazol-5-yl)][NMeL][NMeL]D-Piperidide (lactam N-11; SMILES CC(C)C[C@@H]1NC(=O)[C@H](CC(C)C)N(C)C(=O)C[C@@H](C(=O)N2CCCCC2)NC(=O)[C@H](CC(C)C)N(C)C(=O)[C@H](CC(C)C)N(C)C(=O)[C@H](Cc2nn[nH]n2)NC(=O)[C@H](CC(C)C)N(C)C(=O)[C@H](Cc2ccccc2)N(C)C(=O)[C@H](CC(C)C)NC(=O)[C@H](Cc2ccccc2)N(C)C(=O)[C@H](CC(C)C)N(C)C1=O)”: in data set [2], the isolated mass is recorded as 1.92 mg and the isolated yield came out at 4.8%. In turn, “*Phe-MeLeu-MeVal-MeGly-Thr-MeAla-Ala-MeLeu-Leu-Phe*-Piperidine (C—C-Bonded Between Two * Sites)” displayed a cyclisation yield in data set [2] (on linear precursor) of 6.5%. For the substance “C(Cys(CH2CONH2)-Thr-Thr-Thr-Arg-Asp)-Tyr-Tyr-Arg-Gly-Gly-OH”, the step yield in data set [2] (late stage modification step) is recorded as 20%. In data set [1] (scale 20.2 μmol), Ac-Trp-D-Cys(StBu)-Pro-Lac-Ala-OH gave an isolated mass of 3.0 mg and an isolated yield of 22%. “S-benzyl (3S,6S,9S,12S,15S,21S,24S,27S)-27-amino-3-(((S)-1-(((S)-1-((2-amino-2-oxoethyl)amino)-3-hydroxy-1-oxopropan-2-yl)amino)-1-oxopropan-2-yl)(methyl)carbamoyl)-6,21-dibenzyl-15-isobutyl-9-isopropyl-12,22,24-trimethyl-5,8,11,14,17,20,23,26-octaoxo-4,7,10,13,16,19,22,25-octaazaoctacosane-1-thioate” came in with a step yield in data set [2] (late stage modification step) of 73%. In the case of “^HOGly-Pro-MeLeu-*Lys-MeAla-Leu-MeLeu-MeLeu-Asp-piperidine-MeLeu-MePhe(3-Cl)-Ile* (cyclized at two * sites)”, in data set [2], the isolated mass worked out at 1.6 mg and the isolated yield stood at 1.6%.

Take “S-benzyl (3S,6S,9S,12S,15S,21S,24S,27S)-27-amino-3-(((S)-1-(((S)-1-((2-amino-2-oxoethyl)amino)-3-hydroxy-1-oxopropan-2-yl)amino)-1-oxopropan-2-yl)(methyl)carbamoyl)-6,21-dibenzyl-15-isobutyl-9-isopropyl-12,22,24-trimethyl-5,8,11,14,17,20,23,26-octaoxo-28-phenyl-4,7,10,13,16,19,22,25-octaazaoctacosane-1-thioate”: in data set [2] (late stage modification step), the step yield worked out at 87%.

As for Boc-AA[NMeF]GLAVFD[NMeA]S(tBu)G-NH2, the step yield in data set [2] (late stage modification step) amounted to 88%. Substance “c(Cys(CH2CONH2)-Thr(tBu)-Thr(tBu)-Thr(tBu)-Arg(Pbf)-Asp)-OBn” registered a cyclisation yield in data set [2] (on linear precursor) of 52%.

The substance “*Phe-tBuSSlac-Phe-Lys(H-Cys(StBu))-Leu-MeAla-MeLeu-Ala-MePhe-MeAla-Ala*, cyclized at two * sites” registered a step yield in data set [2] (late stage modification step) of 88%.

In data set [2] (late stage modification step), “Acbz-Cys(StBu)-Gly-Lys(Me2)-Trp-Cys(StBu)-Pro-Lac-Lys(Acbz-Thz)-Asp(SBn)-Pro-NH2” returned a step yield of 70%.

In data set [2] (late stage modification step), Boc-FA[NMeF]GLAVFD[NMeA]S(tBu)G-NH2 returned a step yield of 83%. Regarding “Boc-Ala-Val-MeLeu-Thr(Trt)-MePhe-Gly-MeLeu-MeVal-Phe-Asp(SBn)-MePhe-Ala-piperidine”, in data set [2] (late stage modification step), the step yield is listed as 62.3%. Still for that read-out and setting: to “Boc-Ala-Val-MeLeu-Thr(Trt)-MePhe-Gly-MeLeu-MeVal-Phe-Asp-MePhe-Ala-piperidine” belongs 99%; to “Boc-FA[NMeF]GLAVFD(SBn)[NMeA]S(tBu)G-NH2”, 39%. As to “c(^HOGly-Phe-Lys (N3)-Leu-MeAla-MeLeu-Ala-MePhe-MeAla-Ala-Phe-Cys(StBu)-Pro)”, the cyclisation yield in data set [2] was 39%. In data set [1] (scale 80.9 μmol), Ac-Trp-Cys(StBu)-Pro-^HOGly-Ala-OH yielded an isolated mass of 37.8 mg and an isolated yield of 70%. Substance “Ala-Val-MeLeu-Thr-MePhe-Gly-MeLeu-MeVal-Phe-Asp(SBn)-MePhe-Ala-piperidine” yielded a step yield in data set [2] (late stage modification step) of 22.9%. Turning to “*Cys(SPy)-Lys(Me2)-Trp-^HOGly-Pro-Lys(H-Cys(SPy))-Asp*-Pro-NH2, cyclized at two * sites”, the cyclisation yield in data set [2] is 60%. The substance “*Phe-^MeLeu-^MeVal-^MeGly-Thr-^MeAla-Ala-^MeLeu-Leu-Phe*-Piperidine (C—C Bonded Between Two * Sites)” showed a cyclisation yield in data set [2] (on linear precursor) of 4.8%.

“MeAla-Val-MeLeu-Thr-MePhe-Gly-MeLeu-MeVal-Phe-Asp(SBn)-MePhe-Ala-piperidine” registered a step yield in data set [2] (late stage modification step) of 60.0%. On to Ac-WC(StBu)P[dPhLac]A-OH, for which, in data set [1] (scale 80.9 μmol), the isolated mass is 50.0 mg and the isolated yield is listed as 82%.

For the substance “Boc-MeAla-Val-MeLeu-Thr(Trt)-MePhe-Gly-MeLeu-MeVal-Phe-Asp(SBn)-MePhe-Ala-piperidine”, the step yield in data set [2] (late stage modification step) was 71.0%. For “(5S,8S,11S,14S,20S,23S,26S,29R)-8-benzyl-23-(tert-butoxymethyl)-26-((S)-sec-butyl)-14-((R)-1-hydroxyethyl)-11,20-diisobutyl-4,5,7,10,16,19,25-heptamethyl-29-(piperidine-1-carbonyl)-1-thia-4,7,10,13,16,19,22,25,28-nonaazacyclotriacontane-3,6,9,12,15,18,21,24,27-nonone 1,1-dioxide”, in data set [2] (late stage modification step), the step yield is given as 84%.

Take “*Cys#-Lys(Me2)-Trp-^HoGly-Pro-Lys(H-Cys#)-Asp*-Pro-NH2, cyclized at two * sites and two # sites and having two SH groups forming a disulfide bond at # sites”: in data set [2] (oxidative folding step), the oxidative folding yield is 49%.

In the case of “*Phe-tBuSSlac-Phe-Lys(Alloc-Cys(StBu))-Leu-MeAla-MeLeu-Ala-MePhe-MeAla-Ala*, cyclized at two * sites”, the cyclisation yield in data set [2] stood at 76%. Substance “Ala*-Pro-Val-Ile-MePhe-Met(O2)-Pro-MePhe(3-Cl)-Val-Met(02)-Asp*-Pro-MeGly-Ser-NH(CH2)2NMe2” registered a step yield in data set [2] (late stage modification step) of 91%. Substance “Boc-MeAla-Val-MeLeu-Thr(Trt)-MePhe-Gly-MeLeu-MeVal-Phe-Asp(O(2-EtSS-6-Me-Ph))-MePhe-Ala-piperidine” yielded a step yield in data set [2] (late stage modification step) of 80%. “H-Cys(StBu)-Gly-Lys(Me2)-Trp-Cys(StBu)-Pro-^HOGly-Lys-Asp(SBn)-Pro-NH2” came in with a step yield in data set [2] (late stage modification step) of 58%. The same measure, in the same setting: to “c(Cys(CH2CONH2)-Thr(tBu)-Thr(tBu)-Thr(tBu)-Arg(Pbf)-Asp)-OH” belongs 86%. In data set [2] (late stage modification step), “Acbz-Cys(StBu)-Lys(Me2)-Trp-^HOGly-Pro-Lys(Acbz-Thz)-Asp(SBn)-Pro-NH2” had a step yield of 85%.

As to “C(Cys(CH2CONH2)-Thr(tBu)-Thr(tBu)-Thr (tBu)-Arg (Pbf)-Asp)-Tyr (tBu)-Tyr (tBu)-Arg (Pbf)-Gly-Gly-OH”, the step yield in data set [2] (coupling step) was found to be 7.3%. In data set [2] (late stage modification step), “S-benzyl (4S,7S,13S,16S,19S,22S,25S)-1-amino-25-(((S)-1-(((S)-1-((2-amino-2-oxoethyl)amino)-3-hydroxy-1-oxopropan-2-yl)amino)-1-oxopropan-2-yl)(methyl)carbamoyl)-7,22-dibenzyl-13-isobutyl-19-isopropyl-4,6,12,16-tetramethyl-2,5,8,11,14,17,20,23-octaoxo-3,6,9,12,15,18,21,24-octaazaheptacosane-27-thioate” had a step yield of 69.5%. “Acbz-Cys(StBu)-Gly-Lys(Me2)-Trp-Cys (StBu)-Pro-^HOGly-Lys (Acbz)-Asp (SBn)-Pro-NH2” returned a step yield in data set [2] (late stage modification step) of 71%. “Boc-GA[NMeF]G[NMeL]AVFD[NMeA]S(tBu)G-NH2” registered a step yield in data set [2] (late stage modification step) of 44%.

In data set [2] (late stage modification step), “MeAla-Val-MeLeu-Thr-MePhe-Gly-MeLeu-MeVal-Phe-Asp(O(2-EtSS-6-Me-Ph))-MePhe-Ala-piperidine” came in with a step yield of 33%. Still for that read-out and setting: to “2-(ethyldisulfanyl)-6-methylphenyl (3S,6S,9S,12S,18S,21S,24S,27S,30S)-30-amino-6,18-dibenzyl-21-((R)-1-hydroxyethyl)-12,24-diisobutyl-9,27-diisopropyl-10,13,19,25-tetramethyl-3-(methyl((S)-1-oxo-1-(((S)-1-oxo-1-(piperidin-1-yl)propan-2-yl)amino)-3-phenylpropan-2-yl)carbamoyl)-5,8,11,14,17,20,23,26,29-nonaoxo-4,7,10,13,16,19,22,25,28-nonaazahentriacontan-1-oate” belongs 51%.

In turn, “Fmoc-Phe-tBuSSlac-Phe-Lys(Alloc-Cys(StBu))-Leu-MeAla-MeLeu-Ala-MePhe-MeAla-Ala-OH” gave a step yield in data set [2] (coupling step) of 54%. In data set [2] (late stage modification step), “(5S,8S,11S,14S,17S,23S,26S,29S,32R)-5,11-dibenzyl-26-(tert-butoxymethyl)-29-((S)-sec-butyl)-17-((R)-1-hydroxyethyl)-14,23-diisobutyl-4,7,8,10,13,19,22,28-octamethyl-32-(piperidine-1-carbonyl)-1-thia-4,7,10,13,16,19,22,25,28,31-decaazacyclotritriacontane-3,6,9,12,15,18,21,24,27,30-decone 1-oxide” registered a step yield of 68%. In data set [2] (late stage modification step), Fmoc-Asp(OBn)-MePhe-MePhe-Ala-pip returned a step yield of 92%. The substance “Boc-AA[NMeF]GLAVFD(SBn)[NMeA]S(tBu)G-NH2” yielded a step yield in data set [2] (late stage modification step) of 51%.

Substance “Boc-MeAla-Val-MeLeu-Thr(Trt)-MePhe-Gly-MeLeu-MeVal-Phe-Asp-MePhe-Ala-piperidine” yielded a step yield in data set [2] (late stage modification step) of 95%.
